In PMC4873647:
No constants are given. Whether binding was seen depends on the method and setting. Binding seen in cells or lysates may run through a third protein. Some entries that bind do so weakly or less than the wild type.

By UniProt entry, the sequences of proteins in these tests, tags left out. Where a name states a change or a piece, a line headed by the entry shows the natural chain unless it says otherwise.
UniProt P49023, whole entry: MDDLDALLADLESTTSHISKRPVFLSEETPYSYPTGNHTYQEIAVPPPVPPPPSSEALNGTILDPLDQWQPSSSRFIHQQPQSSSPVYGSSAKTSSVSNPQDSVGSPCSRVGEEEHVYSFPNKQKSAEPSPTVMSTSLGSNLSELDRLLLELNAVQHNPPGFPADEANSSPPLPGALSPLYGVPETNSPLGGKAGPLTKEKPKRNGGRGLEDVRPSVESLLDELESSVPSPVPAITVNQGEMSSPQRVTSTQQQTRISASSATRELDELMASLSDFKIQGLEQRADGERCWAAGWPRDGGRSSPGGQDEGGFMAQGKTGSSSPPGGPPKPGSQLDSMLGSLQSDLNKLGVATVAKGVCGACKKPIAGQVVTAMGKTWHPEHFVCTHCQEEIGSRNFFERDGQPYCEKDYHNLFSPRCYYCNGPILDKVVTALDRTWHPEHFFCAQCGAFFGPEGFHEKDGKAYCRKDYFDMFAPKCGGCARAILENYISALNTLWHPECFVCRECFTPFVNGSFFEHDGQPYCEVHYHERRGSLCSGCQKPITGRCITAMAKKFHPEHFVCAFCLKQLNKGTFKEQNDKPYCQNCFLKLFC
UniProt P24385, whole entry: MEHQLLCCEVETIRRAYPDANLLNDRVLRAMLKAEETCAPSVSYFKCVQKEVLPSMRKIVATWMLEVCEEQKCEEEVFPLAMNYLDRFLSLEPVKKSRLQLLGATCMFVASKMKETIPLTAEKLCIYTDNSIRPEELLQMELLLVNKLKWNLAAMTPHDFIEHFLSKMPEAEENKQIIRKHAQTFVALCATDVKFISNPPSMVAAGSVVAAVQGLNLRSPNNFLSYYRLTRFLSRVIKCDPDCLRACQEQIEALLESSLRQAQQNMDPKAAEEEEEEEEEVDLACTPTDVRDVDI

Biological target: GFP-tagged Pxn, wild type (in HEK293T cells) (human) (UniProt P49023)
Assay: co-IP; HEK293T cells co-transfected with HA-tagged Ccnd1 and wild-type or mutant GFP-tagged Pxn (Supplementary Fig. 1B)

Substance: hemagglutinin (HA)-tagged Ccnd1 (in HEK293T cells) (from UniProt P24385 1-295)
- binding: binds
